Data from the supplement of paper PMC4604168 (melanoma cell lines).
Some of the results follow. Single values are uncertain, as repeats are few or missing.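 The apoptosis fraction was the count of cleaved-PARP antibody-stained nuclei relative to all DNA-stained nuclei, imaged in 1,536-well plates. Screening doses were set so most cells survived, and baseline and induced cleaved-PARP levels vary greatly across cell lines.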

What was measured:
Test in all cases: cleaved PARP positive nuclei fraction relative to DMSO control; melanoma cells; higher = more apoptosis
Conditions in all cases: library dose: low library concentration; 72 h
WM115 = test system: WM115
WM1716 = test system: WM1716
WM1745 = test system: WM1745
WM3526 = test system: WM3526
WM3619 = test system: WM3619
WM451Lu = test system: WM451Lu

| Compound | cleaved PARP positive nuclei fraction (WM115) | cleaved PARP positive nuclei fraction (WM1716) | cleaved PARP positive nuclei fraction (WM1745) | cleaved PARP positive nuclei fraction (WM3526) | cleaved PARP positive nuclei fraction (WM3619) | cleaved PARP positive nuclei fraction (WM451Lu) |
| --- | --- | --- | --- | --- | --- | --- |
| C[C@]1(O)C[C@@H](c2nc(-c3ccc4ccc(-c5ccccc5)nc4c3)c3c(N)nccn32)C1 + OCc1c[nH]c2ccccc12 [Indole-3-carbinol] (first compound 0.4 µM, partner dose 0.8 µM) | 45.5% | 89% | 122% | 97% | 92.3% | 94.2% |
| Cn1sc(=O)n(Cc2ccccc2)c1=O + COc1ccc(-c2ccc3c(N4CCOCC4)nc(N4C[C@@H](C)O[C@@H](C)C4)nc3n2)cc1CO [KU0063794] (first compound 0.4 µM, partner dose 0.02 µM) | 109% | 426% | 93.1% | 84.6% | 97.9% | 130% |
| CC(=O)O[C@@]12CO[C@@H]1C[C@H](O)[C@@]1(C)C(=O)[C@H](O)C3=C(C)[C@@H](OC(=O)[C@H](O)[C@@H](NC(=O)OC(C)(C)C)c4ccccc4)C[C@@](O)([C@@H](OC(=O)c4ccccc4)[C@H]21)C3(C)C [Docetaxel] + CCc1ccc(CCOc2ccc(CC3SC(=O)NC3=O)cc2)nc1 [pioglitazone] (first compound 0.0001 µM, partner dose 2 µM) | 514% | 1050% | 183% | 148% | 116% | 293% |
| CCN(CC)CCNC(=O)c1c(C)[nH]c(/C=C2\C(=O)Nc3ccc(F)cc32)c1C [sunitinib] + CC(=O)c1c(C)c2cnc(Nc3ccc(N4CCNCC4)cn3)nc2n(C2CCCC2)c1=O [palbociclib] (first compound 0.4 µM, partner dose 0.04 µM) | 76.2% | 71% | 131% | 107% | 90% | 53.7% |
| C[C@]1(O)C[C@@H](c2nc(-c3ccc4ccc(-c5ccccc5)nc4c3)c3c(N)nccn32)C1 + Cn1cncc1[C@@](N)(c1ccc(Cl)cc1)c1ccc2c(c1)c(-c1cccc(Cl)c1)cc(=O)n2C [tipifarnib] (first compound 0.4 µM, partner dose 0.01 µM) | 151% | 154% | 256% | 77.2% | 89.9% | 101% |
| CC1(C)CCC(c2ccc(Cl)cc2)=C(CN2CCN(c3ccc(C(=O)NS(=O)(=O)c4ccc(N[C@H](CCN5CCOCC5)CSc5ccccc5)c(S(=O)(=O)C(F)(F)F)c4)cc3)CC2)C1 + NCC(=O)Nc1ccc(-n2nc(C(F)(F)F)cc2-c2ccc3c(ccc4ccccc43)c2)cc1 [OSU03012] (first compound 0.4 µM, partner dose 1 µM) | 971% | 501% | 671% | 345% | 101% | 588% |
| NC1(c2ccc(-c3nc4ccn5c(=O)[nH]nc5c4cc3-c3ccccc3)cc2)CCC1 + O=C1NC(=O)/C(=C/c2ccc(-c3ccc(F)cc3O)o2)S1 [AS252424] (first compound 0.4 µM, partner dose 1 µM) | 266% | 57.4% | 110% | 119% | 92.7% | 38% |
| CS(=O)(=O)c1ccc(C(=O)Nc2ccc(Cl)c(-c3ccccn3)c2)c(Cl)c1 [vismodegib] + CO[C@H]1C[C@@H]2CC[C@@H](C)[C@@](O)(O2)C(=O)C(=O)N2CCCC[C@H]2C(=O)O[C@H]([C@H](C)C[C@@H]2CC[C@@H](OCCO)[C@H](OC)C2)CC(=O)[C@H](C)/C=C(\C)[C@@H](O)[C@@H](OC)C(=O)[C@H](C)C[C@H](C)/C=C/C=C/C=C/1C [everolimus] (first compound 1 µM, partner dose 0.02 µM) | 135% | 283% | 103% | 120% | 114% | 383% |
| CS(=O)(=O)c1ccc(C(=O)Nc2ccc(Cl)c(-c3ccccn3)c2)c(Cl)c1 [vismodegib] + Nc1ncn([C@H]2C[C@H](O)[C@@H](CO)O2)c(=O)n1 [decitabine] (first compound 1 µM, partner dose 0.1 µM) | 128% | 74% | 108% | 24.9% | 87.8% | 95.6% |
| CCN(CC)CCNC(=O)c1c(C)[nH]c(/C=C2\C(=O)Nc3ccc(F)cc32)c1C [sunitinib] + O=S(=O)(c1ccccc1)N(CC(F)(F)F)c1ccc(C(O)(C(F)(F)F)C(F)(F)F)cc1 [T0901317] (first compound 0.4 µM, partner dose 1.4 µM) | 109% | 61.1% | 211% | 84.2% | 88.6% | 37.9% |
| CC1(C)CCC(c2ccc(Cl)cc2)=C(CN2CCN(c3ccc(C(=O)NS(=O)(=O)c4ccc(N[C@H](CCN5CCOCC5)CSc5ccccc5)c(S(=O)(=O)C(F)(F)F)c4)cc3)CC2)C1 + O=C(O)c1ccc(-c2c[nH]c3ncc(-c4ccccc4)cc23)cc1C1CCCC1 [GSK650394] (first compound 0.4 µM, partner dose 0.16 µM) | 246% | 213% | 845% | 113% | 125% | 225% |
| C[C@]1(O)C[C@@H](c2nc(-c3ccc4ccc(-c5ccccc5)nc4c3)c3c(N)nccn32)C1 + Nc1ncn([C@H]2C[C@H](O)[C@@H](CO)O2)c(=O)n1 [decitabine] (first compound 0.4 µM, partner dose 0.1 µM) | 92.5% | 93.9% | 125% | 43.7% | 80.4% | 184% |
| C[C@]1(O)C[C@@H](c2nc(-c3ccc4ccc(-c5ccccc5)nc4c3)c3c(N)nccn32)C1 + CC(=O)c1c(C)c2cnc(Nc3ccc(N4CCNCC4)cn3)nc2n(C2CCCC2)c1=O [palbociclib] (first compound 0.4 µM, partner dose 0.04 µM) | 94.7% | 41.1% | 115% | 57.1% | 209% | 95.3% |
| CCCCCCCCc1ccc(CCC(N)(CO)CO)cc1 [fingolimod] + Cc1cc(N2CCOCC2)cc2[nH]c(-c3c(NC[C@@H](O)c4cccc(Cl)c4)cc[nH]c3=O)nc12 [BMS536924] (first compound 2 µM, partner dose 0.2 µM) | 142% | 82% | 140% | 73.1% | 120% | 106% |
| C[C@]1(O)C[C@@H](c2nc(-c3ccc4ccc(-c5ccccc5)nc4c3)c3c(N)nccn32)C1 + O=C(CCCCCCC(=O)Nc1ccccc1)NO [vorinostat] (first compound 0.4 µM, partner dose 0.08 µM) | 63.2% | 121% | 99.8% | 162% | 116% | 89.4% |
| NC1(c2ccc(-c3nc4ccn5c(=O)[nH]nc5c4cc3-c3ccccc3)cc2)CCC1 + COc1ccc(COc2ccc(Cc3cnc(N)nc3N)cc2OC)cc1 [GW2580] (first compound 0.4 µM, partner dose 1 µM) | 300% | 54.6% | 212% | 130% | 121% | 51.1% |
| CCCCCCCCc1ccc(CCC(N)(CO)CO)cc1 [fingolimod] + C#Cc1cccc(Nc2ncnc3cc(OCCOC)c(OCCOC)cc23)c1 [erlotinib] (first compound 2 µM, partner dose 0.8 µM) | 84.1% | 91.3% | 131% | 81.4% | 112% | 165% |
| CCN(CC)CCNC(=O)c1c(C)[nH]c(/C=C2\C(=O)Nc3ccc(F)cc32)c1C [sunitinib] + CC1(C)NC(=O)N(c2ccc([N+](=O)[O-])c(C(F)(F)F)c2)C1=O [nilutamide] (first compound 0.4 µM, partner dose 1 µM) | 22.9% | 72.7% | 114% | 62.2% | 77.7% | 75.8% |
| CC(=O)O[C@@]12CO[C@@H]1C[C@H](O)[C@@]1(C)C(=O)[C@H](O)C3=C(C)[C@@H](OC(=O)[C@H](O)[C@@H](NC(=O)OC(C)(C)C)c4ccccc4)C[C@@](O)([C@@H](OC(=O)c4ccccc4)[C@H]21)C3(C)C [Docetaxel] + C[C@@H](Oc1cc(-c2cnn(C3CCNCC3)c2)cnc1N)c1c(Cl)ccc(F)c1Cl [Crizotinib] (first compound 0.0001 µM, partner dose 0.2 µM) | 328% | 152% | 141% | 60% | 148% | 63.1% |
| CCCCCCCCc1ccc(CCC(N)(CO)CO)cc1 [fingolimod] + COCC[n+]1c2c(n(Cc3cnccn3)c1C)C(=O)c1ccccc1C2=O [YM155] (first compound 2 µM, partner dose 0.0004 µM) | 229% | 46.1% | 105% | 200% | 103% | 112% |
| NC(=O)c1ccc(N(C(N)=O)c2c(F)cccc2F)nc1-c1ccc(F)cc1F + Oc1cc(-c2nc(-c3ccccc3)[nH]c2-c2ccncc2)ccc1Cl [L779450] (first compound 0.4 µM, partner dose 0.2 µM) | 107% | 130% | 90.8% | 41.7% | 203% | 19.3% |
| Cn1cnc2c(F)c(Nc3ccc(Br)cc3Cl)c(C(=O)NOCCO)cc21 [selumetinib] + COCC[n+]1c2c(n(Cc3cnccn3)c1C)C(=O)c1ccccc1C2=O [YM155] (first compound 0.015 µM, partner dose 0.0004 µM) | 127% | 36.5% | 86.2% | 49.1% | 113% | 56.5% |
| Cn1cnc2c(F)c(Nc3ccc(Br)cc3Cl)c(C(=O)NOCCO)cc21 [selumetinib] + Cn1nnc2c(C(N)=O)ncn2c1=O [temozolomide] (first compound 0.015 µM, partner dose 2 µM) | 140% | 303% | 86.6% | 52.2% | 127% | 84.2% |

Single records (already shown). Values in the order: cleaved PARP positive nuclei fraction (WM115)	cleaved PARP positive nuclei fraction (WM1716)	cleaved PARP positive nuclei fraction (WM1745)	cleaved PARP positive nuclei fraction (WM3526)	cleaved PARP positive nuclei fraction (WM3619)	cleaved PARP positive nuclei fraction (WM451Lu)
NC(=O)c1ccc(N(C(N)=O)c2c(F)cccc2F)nc1-c1ccc(F)cc1F + Oc1cc(-c2nc(-c3ccccc3)[nH]c2-c2ccncc2)ccc1Cl [L779450] (first compound 0.4 µM, partner dose 0.2 µM) as listed: 107%	130%	90.8%	41.7%	203%	19.3%
CCN(CC)CCNC(=O)c1c(C)[nH]c(/C=C2\C(=O)Nc3ccc(F)cc32)c1C [sunitinib] + O=S(=O)(c1ccccc1)N(CC(F)(F)F)c1ccc(C(O)(C(F)(F)F)C(F)(F)F)cc1 [T0901317] (first compound 0.4 µM, partner dose 1.4 µM) as listed: 109%	61.1%	211%	84.2%	88.6%	37.9%
